Results are given in words; binding and its absence hold for the method and conditions named. Some binding calls cover weakened binding; strength is not graded here.
Columns and labels:
BDG33.023 [1] = test: competition ELISA: 20 nM antibody pre-incubated with soluble hIL-13 (0.78-200 nM), then on a plate coated with hIL-13; bound IgG detected with anti-human Fc-HRP
BDG33.025 = test: as above
BDG33.023 [2] = test: cross-competition ELISA: 20 nM antibody pre-incubated with soluble hIL-13 (0.78-200 nM), then on a plate coated with hTSLP; bound IgG detected with anti-human Fc-HRP

Measured: binding

recombinant human IL-13 (from UniProt P35225 35-146) (ligand)
binds: all assays above

From patent publication US20240059769A1
